Data as given in the supplement of paper PMC12819154, “High-throughput peptide-centric local stability assay extends protein–ligand identification to membrane proteins, tissues and bacteria” (Nature Structural & Molecular Biology, 2025).
This is one part of the list. Most entries show no effect beyond the scatter of the controls.

By UniProt entry, the sequences of proteins in these tests, tags left out. Where a name states a change or a piece, a line headed by the entry shows the natural chain unless it says otherwise.
UniProt Q9H4K7: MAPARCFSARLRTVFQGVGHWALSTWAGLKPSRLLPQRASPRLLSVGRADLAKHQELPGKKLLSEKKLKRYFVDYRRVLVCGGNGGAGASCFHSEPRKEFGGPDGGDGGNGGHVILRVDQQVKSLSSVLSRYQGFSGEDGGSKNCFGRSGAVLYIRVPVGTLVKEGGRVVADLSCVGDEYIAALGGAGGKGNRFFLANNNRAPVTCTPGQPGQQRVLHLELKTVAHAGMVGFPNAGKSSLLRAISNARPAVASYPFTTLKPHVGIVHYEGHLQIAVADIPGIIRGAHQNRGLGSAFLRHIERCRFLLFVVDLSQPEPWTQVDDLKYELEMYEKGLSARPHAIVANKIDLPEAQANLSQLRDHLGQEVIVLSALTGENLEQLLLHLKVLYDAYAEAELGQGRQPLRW
UniProt Q9H7H0: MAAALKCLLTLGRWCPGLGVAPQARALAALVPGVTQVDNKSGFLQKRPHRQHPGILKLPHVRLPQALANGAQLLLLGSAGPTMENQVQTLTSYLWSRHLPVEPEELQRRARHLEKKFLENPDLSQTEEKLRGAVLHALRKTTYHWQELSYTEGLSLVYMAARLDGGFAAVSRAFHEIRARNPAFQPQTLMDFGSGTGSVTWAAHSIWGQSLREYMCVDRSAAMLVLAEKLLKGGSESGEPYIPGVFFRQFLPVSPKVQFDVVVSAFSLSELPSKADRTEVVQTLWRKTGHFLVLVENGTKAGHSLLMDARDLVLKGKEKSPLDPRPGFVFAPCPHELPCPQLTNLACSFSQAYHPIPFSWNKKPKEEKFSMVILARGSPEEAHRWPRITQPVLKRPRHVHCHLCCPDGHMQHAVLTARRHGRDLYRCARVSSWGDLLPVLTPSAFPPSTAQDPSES
UniProt Q9HC62: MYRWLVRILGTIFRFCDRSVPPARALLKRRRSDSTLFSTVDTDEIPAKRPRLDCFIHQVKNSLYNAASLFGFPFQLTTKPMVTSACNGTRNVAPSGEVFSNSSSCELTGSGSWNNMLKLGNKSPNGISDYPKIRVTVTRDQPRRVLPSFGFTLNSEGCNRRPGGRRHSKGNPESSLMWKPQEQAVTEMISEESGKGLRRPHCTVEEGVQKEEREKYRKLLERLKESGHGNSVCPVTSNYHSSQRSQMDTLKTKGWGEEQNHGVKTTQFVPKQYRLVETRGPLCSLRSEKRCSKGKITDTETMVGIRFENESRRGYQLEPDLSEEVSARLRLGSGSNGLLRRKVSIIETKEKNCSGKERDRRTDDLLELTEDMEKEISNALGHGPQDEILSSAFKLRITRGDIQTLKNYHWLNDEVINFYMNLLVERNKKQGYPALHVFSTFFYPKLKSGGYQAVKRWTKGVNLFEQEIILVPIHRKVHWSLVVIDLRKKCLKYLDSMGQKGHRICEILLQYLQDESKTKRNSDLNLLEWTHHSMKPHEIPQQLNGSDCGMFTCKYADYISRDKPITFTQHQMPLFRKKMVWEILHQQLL
UniProt Q9HCI7: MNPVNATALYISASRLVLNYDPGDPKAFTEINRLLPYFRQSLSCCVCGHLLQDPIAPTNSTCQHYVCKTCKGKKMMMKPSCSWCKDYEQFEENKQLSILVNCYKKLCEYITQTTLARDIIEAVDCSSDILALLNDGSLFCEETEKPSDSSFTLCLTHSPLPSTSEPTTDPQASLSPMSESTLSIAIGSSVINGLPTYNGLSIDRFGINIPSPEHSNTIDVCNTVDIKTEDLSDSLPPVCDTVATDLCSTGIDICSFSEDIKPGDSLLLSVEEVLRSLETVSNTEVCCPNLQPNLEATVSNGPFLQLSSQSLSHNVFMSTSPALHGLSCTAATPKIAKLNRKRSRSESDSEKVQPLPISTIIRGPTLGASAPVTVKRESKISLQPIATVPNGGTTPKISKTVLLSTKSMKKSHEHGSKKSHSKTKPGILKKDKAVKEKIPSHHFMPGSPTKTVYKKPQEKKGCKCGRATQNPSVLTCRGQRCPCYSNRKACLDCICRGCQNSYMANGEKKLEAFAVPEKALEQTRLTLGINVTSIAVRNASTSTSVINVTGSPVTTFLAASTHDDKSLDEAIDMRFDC
UniProt Q9HB20: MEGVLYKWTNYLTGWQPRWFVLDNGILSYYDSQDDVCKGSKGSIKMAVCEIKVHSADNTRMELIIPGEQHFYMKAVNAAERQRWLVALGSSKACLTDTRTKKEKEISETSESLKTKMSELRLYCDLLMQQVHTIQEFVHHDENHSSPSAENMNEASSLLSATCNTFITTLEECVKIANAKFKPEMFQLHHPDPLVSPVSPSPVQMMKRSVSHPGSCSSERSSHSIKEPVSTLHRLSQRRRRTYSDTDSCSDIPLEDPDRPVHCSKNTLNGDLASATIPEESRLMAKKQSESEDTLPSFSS
UniProt Q9H6P5: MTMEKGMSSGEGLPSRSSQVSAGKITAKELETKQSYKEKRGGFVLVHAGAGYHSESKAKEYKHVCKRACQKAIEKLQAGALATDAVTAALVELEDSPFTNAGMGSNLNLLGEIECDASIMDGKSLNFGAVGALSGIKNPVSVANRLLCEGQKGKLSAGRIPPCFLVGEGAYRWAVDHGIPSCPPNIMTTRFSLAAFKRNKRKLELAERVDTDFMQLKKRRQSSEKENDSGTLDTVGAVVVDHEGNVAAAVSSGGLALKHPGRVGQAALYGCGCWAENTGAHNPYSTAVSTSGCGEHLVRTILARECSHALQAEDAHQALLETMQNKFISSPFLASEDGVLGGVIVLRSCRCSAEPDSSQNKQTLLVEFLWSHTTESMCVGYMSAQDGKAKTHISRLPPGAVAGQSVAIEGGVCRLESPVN
UniProt Q9H4Z3: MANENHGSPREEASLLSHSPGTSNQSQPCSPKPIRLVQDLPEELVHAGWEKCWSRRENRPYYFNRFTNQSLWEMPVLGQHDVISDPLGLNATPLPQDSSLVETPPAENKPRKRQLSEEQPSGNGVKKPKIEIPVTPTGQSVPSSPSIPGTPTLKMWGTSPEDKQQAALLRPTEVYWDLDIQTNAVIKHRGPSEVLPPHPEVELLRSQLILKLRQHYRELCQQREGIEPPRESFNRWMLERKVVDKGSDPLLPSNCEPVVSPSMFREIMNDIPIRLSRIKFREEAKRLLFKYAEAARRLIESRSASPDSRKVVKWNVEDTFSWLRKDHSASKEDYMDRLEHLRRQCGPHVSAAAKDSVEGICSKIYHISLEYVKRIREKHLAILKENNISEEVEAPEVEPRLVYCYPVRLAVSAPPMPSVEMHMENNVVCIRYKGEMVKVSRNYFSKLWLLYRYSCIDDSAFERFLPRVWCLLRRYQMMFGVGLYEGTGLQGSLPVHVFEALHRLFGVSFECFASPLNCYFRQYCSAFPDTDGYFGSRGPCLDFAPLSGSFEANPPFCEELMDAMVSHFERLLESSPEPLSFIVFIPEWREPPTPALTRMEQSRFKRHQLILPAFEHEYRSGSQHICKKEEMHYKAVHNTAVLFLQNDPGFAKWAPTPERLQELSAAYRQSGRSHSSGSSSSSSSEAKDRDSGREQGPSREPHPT
UniProt Q9HAV4: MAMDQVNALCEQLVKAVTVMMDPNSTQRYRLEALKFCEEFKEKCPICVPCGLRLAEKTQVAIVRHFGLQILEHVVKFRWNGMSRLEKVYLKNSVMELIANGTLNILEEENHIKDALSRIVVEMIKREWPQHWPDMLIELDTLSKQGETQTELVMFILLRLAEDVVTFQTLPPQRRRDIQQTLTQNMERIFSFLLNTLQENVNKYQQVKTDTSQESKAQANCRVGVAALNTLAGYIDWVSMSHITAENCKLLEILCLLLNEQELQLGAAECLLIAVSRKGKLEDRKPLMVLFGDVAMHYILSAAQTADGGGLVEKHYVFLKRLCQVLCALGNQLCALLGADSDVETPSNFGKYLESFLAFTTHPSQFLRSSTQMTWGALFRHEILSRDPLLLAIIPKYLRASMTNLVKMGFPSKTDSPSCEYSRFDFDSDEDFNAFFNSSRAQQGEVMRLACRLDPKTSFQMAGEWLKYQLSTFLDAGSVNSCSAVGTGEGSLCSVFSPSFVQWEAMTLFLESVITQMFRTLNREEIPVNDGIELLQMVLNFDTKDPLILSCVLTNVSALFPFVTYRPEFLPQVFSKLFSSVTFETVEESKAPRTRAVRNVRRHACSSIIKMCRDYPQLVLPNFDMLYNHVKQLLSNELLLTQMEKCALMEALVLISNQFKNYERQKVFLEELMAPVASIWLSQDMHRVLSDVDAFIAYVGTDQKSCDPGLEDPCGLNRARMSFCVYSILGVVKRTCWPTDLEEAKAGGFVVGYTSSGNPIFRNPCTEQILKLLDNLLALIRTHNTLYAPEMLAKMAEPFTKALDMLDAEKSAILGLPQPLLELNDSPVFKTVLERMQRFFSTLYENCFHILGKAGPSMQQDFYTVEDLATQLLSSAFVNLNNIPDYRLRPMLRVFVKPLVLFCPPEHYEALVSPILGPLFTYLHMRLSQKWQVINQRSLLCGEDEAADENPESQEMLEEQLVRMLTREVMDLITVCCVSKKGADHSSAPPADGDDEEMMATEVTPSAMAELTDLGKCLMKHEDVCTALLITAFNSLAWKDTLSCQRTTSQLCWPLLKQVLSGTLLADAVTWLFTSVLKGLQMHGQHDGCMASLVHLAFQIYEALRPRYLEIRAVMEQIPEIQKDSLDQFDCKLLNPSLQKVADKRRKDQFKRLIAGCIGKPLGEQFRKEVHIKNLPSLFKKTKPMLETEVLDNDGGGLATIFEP
UniProt Q9H9A6: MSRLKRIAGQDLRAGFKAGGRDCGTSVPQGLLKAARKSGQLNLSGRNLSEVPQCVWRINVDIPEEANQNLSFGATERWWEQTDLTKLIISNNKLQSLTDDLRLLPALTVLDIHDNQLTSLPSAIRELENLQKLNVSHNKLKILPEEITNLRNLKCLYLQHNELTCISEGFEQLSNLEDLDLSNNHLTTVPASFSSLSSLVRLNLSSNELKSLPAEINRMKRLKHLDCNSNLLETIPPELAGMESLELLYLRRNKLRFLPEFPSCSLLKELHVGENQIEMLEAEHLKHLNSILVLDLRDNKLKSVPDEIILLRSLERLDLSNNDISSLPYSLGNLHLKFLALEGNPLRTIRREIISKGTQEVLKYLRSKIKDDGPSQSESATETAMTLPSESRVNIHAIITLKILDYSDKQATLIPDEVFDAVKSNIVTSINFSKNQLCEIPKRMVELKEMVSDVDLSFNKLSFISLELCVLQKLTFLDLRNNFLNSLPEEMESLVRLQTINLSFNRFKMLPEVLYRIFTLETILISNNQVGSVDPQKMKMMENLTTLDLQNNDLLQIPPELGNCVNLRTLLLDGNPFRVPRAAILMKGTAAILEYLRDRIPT
UniProt Q9HA64: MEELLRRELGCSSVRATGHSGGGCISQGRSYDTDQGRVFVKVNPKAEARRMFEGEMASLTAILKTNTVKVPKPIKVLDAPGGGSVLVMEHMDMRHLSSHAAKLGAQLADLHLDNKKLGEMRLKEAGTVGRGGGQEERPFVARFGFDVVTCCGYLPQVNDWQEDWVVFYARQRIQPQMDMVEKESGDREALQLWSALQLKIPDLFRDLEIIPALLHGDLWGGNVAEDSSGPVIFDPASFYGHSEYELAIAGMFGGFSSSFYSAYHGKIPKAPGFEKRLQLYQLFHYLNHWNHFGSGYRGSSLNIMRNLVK
UniProt Q9H270: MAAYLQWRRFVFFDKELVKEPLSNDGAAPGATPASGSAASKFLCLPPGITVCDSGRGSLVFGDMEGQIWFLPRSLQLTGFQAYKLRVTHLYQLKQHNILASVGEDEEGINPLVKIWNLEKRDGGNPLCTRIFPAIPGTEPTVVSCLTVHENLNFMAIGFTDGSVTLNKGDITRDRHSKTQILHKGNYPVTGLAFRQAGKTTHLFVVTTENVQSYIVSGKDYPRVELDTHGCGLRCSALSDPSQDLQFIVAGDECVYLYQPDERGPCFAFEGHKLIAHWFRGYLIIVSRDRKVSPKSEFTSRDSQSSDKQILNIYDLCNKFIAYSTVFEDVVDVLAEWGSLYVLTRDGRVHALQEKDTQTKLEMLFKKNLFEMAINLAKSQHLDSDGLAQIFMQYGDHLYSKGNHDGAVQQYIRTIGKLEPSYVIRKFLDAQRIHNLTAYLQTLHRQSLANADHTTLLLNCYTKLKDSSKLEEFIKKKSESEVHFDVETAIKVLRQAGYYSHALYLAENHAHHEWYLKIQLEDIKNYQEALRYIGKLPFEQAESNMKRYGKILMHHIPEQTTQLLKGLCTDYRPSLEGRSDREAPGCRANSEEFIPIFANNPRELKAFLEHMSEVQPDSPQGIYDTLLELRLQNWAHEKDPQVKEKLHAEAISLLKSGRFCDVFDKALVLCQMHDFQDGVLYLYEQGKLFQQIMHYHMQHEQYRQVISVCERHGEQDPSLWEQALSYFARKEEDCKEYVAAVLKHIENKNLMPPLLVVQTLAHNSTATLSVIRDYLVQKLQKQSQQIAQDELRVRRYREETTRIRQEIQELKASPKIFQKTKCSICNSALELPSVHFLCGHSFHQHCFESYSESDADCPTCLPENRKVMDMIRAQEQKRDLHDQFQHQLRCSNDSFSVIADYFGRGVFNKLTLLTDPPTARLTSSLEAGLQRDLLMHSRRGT

The targets below were run with Cc1nc(Nc2ncc(C(=O)Nc3c(C)cccc3Cl)s2)cc(N2CCN(CCO)CC2)n1 [dasatinib] (assay: log2 fold change of tryptic peptide abundance, ligand vs vehicle (limited proteolysis) (log2 ratio); higher = more trypsin-susceptible (destabilized)). Details: ligand concentration: 5 uM; sample: K562 cleared lysate.
“UniProt Q9H4K7 (peptide sequence: SGAVLYIR, peptide start residue: 149)” was tested, and the log2 fold change was 0.0774.
Target “UniProt Q9H7H0 (peptide sequence: FSMVILAR, peptide start residue: 369)” has a log2 fold change of 0.253.
“FN3K (peptide sequence: LQAQLDLIEKDYADR, peptide start residue: 173) (UniProt Q9H479)” showed a log2 fold change of 0.351.
For “ZNF644 (peptide sequence: ASQHQVLFLLSDVAHAK, peptide start residue: 169) (UniProt Q9H582)”, the log2 fold change was -0.339.
Target “HEATR1 (peptide sequence: LSPDGGKIPK, peptide start residue: 1266) (UniProt Q9H583)” has a log2 fold change of -0.156.
“SENP2 (peptide sequence: TKGWGEEQNHGVK, peptide start residue: 252) (UniProt Q9HC62)” showed a log2 fold change of 0.273.
“MSL2 (peptide sequence: GPTLGASAPVTVKR, peptide start residue: 363) (UniProt Q9HCI7)” was tested, and the log2 fold change was -0.0804.
“AUNIP (peptide sequence: QAPVLLQTYR, peptide start residue: 242) (UniProt Q9H7T9)” gave a log2 fold change of -0.369.
“UBE2Z (peptide sequence: LHLQGQTMQDPFGEKR, peptide start residue: 290) (UniProt Q9H832)” showed a log2 fold change of 0.558.
“PLEKHA3 (peptide sequence: SSHSIKEPVSTLHR, peptide start residue: 221) (UniProt Q9HB20)” was tested, and the log2 fold change was -0.223.
In the case of “TASP1 (peptide sequence: VDTDFMQLK, peptide start residue: 209) (UniProt Q9H6P5)”, the log2 fold change is reported as -0.0555.
Work on “CLSPN (peptide sequence: GPSFMTSPSPK, peptide start residue: 1308) (UniProt Q9HAW4)” yielded a log2 fold change of -0.881.
Work on “MLXIP (peptide sequence: AHASAAPPPPR, peptide start residue: 52) (UniProt Q9HAP2)” yielded a log2 fold change of -0.273.
“PCIF1 (peptide sequence: EGIEPPRESFNR, peptide start residue: 224) (UniProt Q9H4Z3)” was tested, and the log2 fold change was 0.406.
In the case of “MED20 (peptide sequence: SVQQTVELLTR, peptide start residue: 16) (UniProt Q9H944)”, the log2 fold change is reported as -0.038.
For “GNB4 (peptide sequence: TFVSGACDASSK, peptide start residue: 198) (UniProt Q9HAV0)”, the log2 fold change was 0.247.
Target “PHAX (peptide sequence: RRTPGGVFLNLLK, peptide start residue: 282) (UniProt Q9H814)” has a log2 fold change of 0.671.
“XPO5 (peptide sequence: FFSTLYENCFHILGK, peptide start residue: 839) (UniProt Q9HAV4)” showed a log2 fold change of 0.0828.
With “LIN28A (peptide sequence: CYNCGGLDHHAK, peptide start residue: 129) (UniProt Q9H9Z2)” the log2 fold change was 0.24.
“UniProt Q9HCE0 (peptide sequence: QQLQDPEHFTNFEK, peptide start residue: 749)” showed a log2 fold change of -0.499.
In the case of “ZFYVE1 (peptide sequence: VCDNCYEAR, peptide start residue: 650) (UniProt Q9HBF4)”, the log2 fold change is reported as 0.337.
“VPS16 (peptide sequence: DLYNQDDNHQELGSFHIR, peptide start residue: 618) (UniProt Q9H269)” showed a log2 fold change of 0.426.
For “UNC45A (peptide sequence: LDQAVLDLQR, peptide start residue: 108) (UniProt Q9H3U1)”, the log2 fold change was 0.0744.
“TANC2 (peptide sequence: YSQTPQIGR, peptide start residue: 1711) (UniProt Q9HCD6)” was tested, and the log2 fold change was 0.463.
“EHMT1 (peptide sequence: IAENGVSER, peptide start residue: 91) (UniProt Q9H9B1)” gave a log2 fold change of 0.21.
For “TRIT1 (peptide sequence: CTLETSNQLLK, peptide start residue: 298) (UniProt Q9H3H1)”, the log2 fold change was 0.233.
“VPS33B (peptide sequence: TEHALLEGFNIR, peptide start residue: 366) (UniProt Q9H267)” was tested, and the log2 fold change was -0.203.
“LRRC40 (peptide sequence: LTFLDLR, peptide start residue: 474) (UniProt Q9H9A6)” was tested, and the log2 fold change was -0.389.
Target “FN3KRP (peptide sequence: GSSLNIMR, peptide start residue: 298) (UniProt Q9HA64)” has a log2 fold change of 0.145.
“RPP21 (peptide sequence: FYCYTER, peptide start residue: 37) (UniProt Q9H633)” was tested, and the log2 fold change was 0.193.
With “RMI1 (peptide sequence: QSSFEPEFVISPRPK, peptide start residue: 282) (UniProt Q9H9A7)” the log2 fold change was -0.219.
For “KCTD10 (peptide sequence: SHHLDEDEERER, peptide start residue: 282) (UniProt Q9H3F6)”, the log2 fold change was -0.159.
“GEMIN7 (peptide sequence: CSDIISYTFKP, peptide start residue: 121) (UniProt Q9H840)” gave a log2 fold change of 0.0705.
In the case of “ANKRA2 (peptide sequence: AECNIHTSPSPGIQVR, peptide start residue: 97) (UniProt Q9H9E1)”, the log2 fold change is reported as 0.0391.
For “EHD4 (peptide sequence: VVLNKADQVDTQQLMR, peptide start residue: 219) (UniProt Q9H223)”, the log2 fold change was 0.125.
Target “UniProt Q9HCE5 (peptide sequence: ETCRASYDTSAPNAKR, peptide start residue: 49)” has a log2 fold change of 0.345.
“VPS11 (peptide sequence: IRQEIQELK, peptide start residue: 803) (UniProt Q9H270)” was tested, and the log2 fold change was -0.511.
